Test results: PMC5740878
Results are given in words; binding and its absence hold for the method and conditions named. For some of these results: In cells and extracts the contact can be indirect. Some entries that bind do so weakly or less than the wild type. For some of these results: Tags and fused reporters may be left off the sequences shown.

By UniProt entry, the sequences of proteins in these tests, tags left out.
UniProt Q92993: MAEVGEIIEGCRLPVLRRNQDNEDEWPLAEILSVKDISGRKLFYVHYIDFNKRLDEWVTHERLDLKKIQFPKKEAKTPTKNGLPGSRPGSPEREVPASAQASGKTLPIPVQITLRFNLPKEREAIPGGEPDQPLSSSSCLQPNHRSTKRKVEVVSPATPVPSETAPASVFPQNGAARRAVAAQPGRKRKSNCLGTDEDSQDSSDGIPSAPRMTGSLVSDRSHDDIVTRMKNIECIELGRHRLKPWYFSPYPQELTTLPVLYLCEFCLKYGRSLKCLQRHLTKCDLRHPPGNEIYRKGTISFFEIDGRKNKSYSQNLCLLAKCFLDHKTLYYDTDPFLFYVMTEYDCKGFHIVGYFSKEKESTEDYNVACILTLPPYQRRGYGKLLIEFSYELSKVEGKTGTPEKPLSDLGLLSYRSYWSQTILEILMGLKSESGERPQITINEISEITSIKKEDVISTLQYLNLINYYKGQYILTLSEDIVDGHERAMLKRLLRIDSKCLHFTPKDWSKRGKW

Columns and labels:
[1] = target: His-tagged TIP60 wild type (UniProt Q92993); test: pull-down; His-tagged TIP60 WT or mutants immobilised on Ni-NTA agarose beads; equal quantity of GST-UHRF1 added in PBS with 30 mM imidazole and 0.1% triton; 150 mM NaCl; five washes; SDS-PAGE and Western blot; both purified
[2] = target: His-tagged TIP60 wild type (UniProt Q92993); test: pull-down; same pull-down at higher NaCl (until 500 mM for TIP60WT, up to 1 M for the MYST domain); data not shown; both purified
TIP60-eGFP wild type = TIP60-eGFP wild type (UniProt Q92993); test: co-IP; HeLa cells (untransfected or transfected), lysed by freeze shock and sonication in PBS with protease inhibitors; 800 μg to 1 mg lysate with antibody (anti-mCherry, anti-eGFP or anti-UHRF1) 4 h at 4 °C, Dynabeads Protein A 1 h at 4 °C, five washes; Western blot

B1: GST-UHRF1 (protein, UniProt Q96T88 1-793)
chain: MWIQVRTMDGRQTHTVDSLSRLTKVEELRRKIQELFHVEPGLQRLFYRGKQMEDGHTLFDYEVRLNDTIQLLVRQSLVLPHSTKERDSELSDTDSGCCLGQSESDKSSTHGEAAAETDSRPADEDMWDETELGLYKVNEYVDARDTNMGAWFEAQVVRVTRKAPSRDEPCSSTSRPALEEDVIYHVKYDDYPENGVVQMNSRDVRARARTIIKWQDLEVGQVVMLNYNPDNPKERGFWYDAEISRKRETRTARELYANVVLGDDSLNDCRIIFVDEVFKIERPGEGSPMVDNPMRRKSGPSCKHCKDDVNRLCRVCACHLCGGRQDPDKQLMCDECDMAFHIYCLDPPLSSVPSEDEWYCPECRNDASEVVLAGERLRESKKKAKMASATSSSQRDWGKGMACVGRTKECTIVPSNHYGPIPGIPVGTMWRFRVQVSESGVHRPHVAGIHGRSNDGAYSLVLAGGYEDDVDHGNFFTYTGSGGRDLSGNKRTAEQSCDQKLTNTNRALALNCFAPINDQEGAEAKDWRSGKPVRVVRNVKGGKNSKYAPAEGNRYDGIYKVVKYWPEKGKSGFLVWRYLLRRDDDEPGPWTKEGKDRIKKLGLTMQYPEGYLEALANREREKENSKREEEEQQEGGFASPRTGKGKWKRKSAGGGPSRAGSPRRTSKKTKVEPYSLTAQQSSLIREDKSNAKLWNEVLASLKDRPASGSPFQLFLSKVEETFQCICCQELVFRPITTVCQHNVCKDCLDRSFRAQVFSCPACRYDLGRSYAMQVNQPLQTVLNQLFPGYGNGR
- binding [1]: binds
- binding [2]: binds

B2: UHRF1-mCherry (protein, UniProt Q96T88 1-793)
chain: MWIQVRTMDGRQTHTVDSLSRLTKVEELRRKIQELFHVEPGLQRLFYRGKQMEDGHTLFDYEVRLNDTIQLLVRQSLVLPHSTKERDSELSDTDSGCCLGQSESDKSSTHGEAAAETDSRPADEDMWDETELGLYKVNEYVDARDTNMGAWFEAQVVRVTRKAPSRDEPCSSTSRPALEEDVIYHVKYDDYPENGVVQMNSRDVRARARTIIKWQDLEVGQVVMLNYNPDNPKERGFWYDAEISRKRETRTARELYANVVLGDDSLNDCRIIFVDEVFKIERPGEGSPMVDNPMRRKSGPSCKHCKDDVNRLCRVCACHLCGGRQDPDKQLMCDECDMAFHIYCLDPPLSSVPSEDEWYCPECRNDASEVVLAGERLRESKKKAKMASATSSSQRDWGKGMACVGRTKECTIVPSNHYGPIPGIPVGTMWRFRVQVSESGVHRPHVAGIHGRSNDGAYSLVLAGGYEDDVDHGNFFTYTGSGGRDLSGNKRTAEQSCDQKLTNTNRALALNCFAPINDQEGAEAKDWRSGKPVRVVRNVKGGKNSKYAPAEGNRYDGIYKVVKYWPEKGKSGFLVWRYLLRRDDDEPGPWTKEGKDRIKKLGLTMQYPEGYLEALANREREKENSKREEEEQQEGGFASPRTGKGKWKRKSAGGGPSRAGSPRRTSKKTKVEPYSLTAQQSSLIREDKSNAKLWNEVLASLKDRPASGSPFQLFLSKVEETFQCICCQELVFRPITTVCQHNVCKDCLDRSFRAQVFSCPACRYDLGRSYAMQVNQPLQTVLNQLFPGYGNGR
- binding (TIP60-eGFP wild type): binds

B3: endogenous UHRF1 (protein, UniProt Q96T88 1-793)
chain: MWIQVRTMDGRQTHTVDSLSRLTKVEELRRKIQELFHVEPGLQRLFYRGKQMEDGHTLFDYEVRLNDTIQLLVRQSLVLPHSTKERDSELSDTDSGCCLGQSESDKSSTHGEAAAETDSRPADEDMWDETELGLYKVNEYVDARDTNMGAWFEAQVVRVTRKAPSRDEPCSSTSRPALEEDVIYHVKYDDYPENGVVQMNSRDVRARARTIIKWQDLEVGQVVMLNYNPDNPKERGFWYDAEISRKRETRTARELYANVVLGDDSLNDCRIIFVDEVFKIERPGEGSPMVDNPMRRKSGPSCKHCKDDVNRLCRVCACHLCGGRQDPDKQLMCDECDMAFHIYCLDPPLSSVPSEDEWYCPECRNDASEVVLAGERLRESKKKAKMASATSSSQRDWGKGMACVGRTKECTIVPSNHYGPIPGIPVGTMWRFRVQVSESGVHRPHVAGIHGRSNDGAYSLVLAGGYEDDVDHGNFFTYTGSGGRDLSGNKRTAEQSCDQKLTNTNRALALNCFAPINDQEGAEAKDWRSGKPVRVVRNVKGGKNSKYAPAEGNRYDGIYKVVKYWPEKGKSGFLVWRYLLRRDDDEPGPWTKEGKDRIKKLGLTMQYPEGYLEALANREREKENSKREEEEQQEGGFASPRTGKGKWKRKSAGGGPSRAGSPRRTSKKTKVEPYSLTAQQSSLIREDKSNAKLWNEVLASLKDRPASGSPFQLFLSKVEETFQCICCQELVFRPITTVCQHNVCKDCLDRSFRAQVFSCPACRYDLGRSYAMQVNQPLQTVLNQLFPGYGNGR
- binding (TIP60-eGFP wild type): binds
